Data as given in patent US8476434B2, “Protein kinase modulators and method of use” (Amgen Inc., priority 2004, dated 2013).
Some of these results come from one statement about several compounds together.

The chains behind the UniProt entries cited, without tags or fusion partners. Residues count along the entry.
UniProt Q02763, 23-1124: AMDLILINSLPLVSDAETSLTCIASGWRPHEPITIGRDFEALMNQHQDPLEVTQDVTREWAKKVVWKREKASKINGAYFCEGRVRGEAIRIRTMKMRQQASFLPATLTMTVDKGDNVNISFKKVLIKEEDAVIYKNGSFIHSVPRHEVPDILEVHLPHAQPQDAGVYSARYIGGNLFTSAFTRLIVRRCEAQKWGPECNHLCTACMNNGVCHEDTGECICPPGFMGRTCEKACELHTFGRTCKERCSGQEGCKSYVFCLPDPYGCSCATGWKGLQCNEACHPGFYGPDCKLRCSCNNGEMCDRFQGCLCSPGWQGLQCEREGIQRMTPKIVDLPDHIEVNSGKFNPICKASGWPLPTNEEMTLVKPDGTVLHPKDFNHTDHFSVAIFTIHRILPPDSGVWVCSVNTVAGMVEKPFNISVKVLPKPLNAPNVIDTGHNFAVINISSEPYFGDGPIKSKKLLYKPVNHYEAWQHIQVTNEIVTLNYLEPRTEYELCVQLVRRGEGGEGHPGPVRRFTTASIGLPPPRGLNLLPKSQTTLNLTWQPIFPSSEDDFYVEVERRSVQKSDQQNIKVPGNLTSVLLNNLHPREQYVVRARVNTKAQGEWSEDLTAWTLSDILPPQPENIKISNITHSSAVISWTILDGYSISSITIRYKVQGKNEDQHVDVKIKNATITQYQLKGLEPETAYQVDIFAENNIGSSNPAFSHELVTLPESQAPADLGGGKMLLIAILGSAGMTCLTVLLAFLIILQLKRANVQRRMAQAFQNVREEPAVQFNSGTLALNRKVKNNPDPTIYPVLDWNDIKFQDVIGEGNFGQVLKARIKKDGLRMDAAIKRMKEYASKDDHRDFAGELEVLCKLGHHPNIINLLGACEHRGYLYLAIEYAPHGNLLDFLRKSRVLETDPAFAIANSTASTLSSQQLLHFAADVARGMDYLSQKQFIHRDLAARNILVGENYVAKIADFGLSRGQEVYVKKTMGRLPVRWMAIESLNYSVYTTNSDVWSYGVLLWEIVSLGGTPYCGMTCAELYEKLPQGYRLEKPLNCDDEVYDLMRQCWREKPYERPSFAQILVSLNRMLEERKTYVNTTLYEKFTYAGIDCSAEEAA

Each compound was assayed against Tie-2 kinase enzyme (Homo sapiens, UniProt Q02763) (assay: Tie-2 Homogenous Time Resolved Fluorescent (HTRF) kinase assay). Conditions: read-out: IC50's for the inhibition of Tie-2 as measured by the HTRF assay.
Assay type: biochemical

Row | SMILES | IC50 [µM]
1 | CNc1nccc(-c2cccnc2Oc2ccc(F)c(C(=O)Nc3cc(C(=O)N4CCS(=O)(=O)CC4)cc(C(F)(F)F)c3)c2)n1 [Example 537, N-(3-((1,1-dioxido-4-thiomorpholinyl)carbonyl)-5-(trifluoromethyl)phenyl)-2-fluoro-5-((3-(2-(methylamino)-4-pyrimidinyl)-2-pyridinyl)oxy)benzamide] | < 5
2 | CNc1nccc(-c2cccnc2Oc2ccc(F)c(C(=O)Nc3cc(C(F)(F)F)ccc3-n3cncn3)c2)n1 [Example 538, 2-fluoro-5-((3-(2-(methylamino)-4-pyrimidinyl)-2-pyridinyl)oxy)-N-(2-(1H-1,2,4-triazol-1-yl)-5-(trifluoromethyl)phenyl) benzamide] | < 5
3 | CNc1nccc(-c2cc(Cl)cnc2Oc2cc(C(=O)Nc3cccc(C(C)C)c3)ccc2C)n1 [Example 630, 3-((5-chloro-3-(2-(methylamino)-4-pyrimidinyl)-2-pyridinyl)oxy)-4-methyl-N-(3-(1-methylethyl)phenyl) benzamide] | < 5
4 | Cc1ccc(C(=O)Nc2cccc(C(C)C)c2)cc1Oc1ncccc1-c1ncnc(NCCCCN(C)C)n1 [Example 631, 3-((3-(4-((4-(dimethylamino)butyl)amino)-1,3,5-triazin-2-yl)-2-pyridinyl)oxy)-4-methyl-N-(3-(1-methylethyl)phenyl) benzamide] | < 5
5 | Cc1ccc(C(=O)Nc2cccc(C(C)C)c2)cc1Oc1ncccc1-c1ncnc(NCCCN2CCOCC2)n1 [Example 632, 4-methyl-N-(3-(1-methylethyl)phenyl)-3-((3-(4-((3-(4-morpholinyl)propyl)amino)-1,3,5-triazin-2-yl)-2-pyridinyl)oxy)benzamide] | < 5
6 | Cc1ccc(C(=O)Nc2cccc(C(C)C)c2)cc1Oc1ncccc1-c1ncnc(NCCN2CCOCC2)n1 [Example 633, 4-methyl-N-(3-(1-methylethyl)phenyl)-3-((3-(4-((2-(4-morpholinyl)ethyl)amino)-1,3,5-triazin-2-yl)-2-pyridinyl)oxy)benzamide] | < 5
7 | COc1ccc(C2CCCCC2)cc1NC(=O)c1ccc(C)c(Oc2ncccc2-c2ncnc(NCCCN3CCOCC3)n2)c1 [Example 634, N-(5-cyclohexyl-2-(methyloxy)phenyl)-4-methyl-3-((3-(4-((3-(4-morpholinyl)propyl)amino)-1,3,5-triazin-2-yl)-2-pyridinyl)oxy)benzamide] | < 5
8 | COc1ccc(C2CCCCC2)cc1NC(=O)c1ccc(C)c(Oc2ncccc2-c2ncnc(NCCCCN(C)C)n2)c1 [Example 635, N-(5-cyclohexyl-2-(methyloxy)phenyl)-3-((3-(4-((4-(dimethylamino)butyl)amino)-1,3,5-triazin-2-yl)-2-pyridinyl)oxy)-4-methylbenzamide] | < 5
9 | COc1ccc(C2CCCCC2)cc1NC(=O)c1ccc(C)c(Oc2ncccc2-c2ncnc(NCCN3CCOCC3)n2)c1 [Example 636, N-(5-cyclohexyl-2-(methyloxy)phenyl)-4-methyl-3-((3-(4-((2-(4-morpholinyl)ethyl)amino)-1,3,5-triazin-2-yl)-2-pyridinyl)oxy)benzamide] | < 5
10 | Cc1ccc(C(=O)Nc2cccc(C(C)C)c2)cc1Oc1ncccc1-c1ccnc2ccccc12 [Example 637, 4-methyl-N-(3-(1-methylethyl)phenyl)-3-((3-(4-quinolinyl)-2-pyridinyl)oxy)benzamide] | < 5
11 | Cc1ccc(C(=O)Nc2cccc(C(C)C)c2)cc1Oc1ncccc1-c1ccnc(NCCCN2CCOCC2)c1 [Example 638, 4-methyl-N-(3-(1-methylethyl)phenyl)-3-((2′-((3-(4-morpholinyl)propyl)amino)-3,4′-bipyridin-2-yl)oxy)benzamide] | < 5
12 | COc1cc2ncnc(-c3cccnc3Oc3cc(C(=O)Nc4cccc(C(C)C)c4)ccc3C)c2cc1OC [Example 640, 3-((3-(6,7-bis(methyloxy)-4-quinazolinyl)-2-pyridinyl)oxy)-4-methyl-N-(3-(1-methylethyl)phenyl)benzamide] | < 5
13 | COc1ccc(C2CCCCC2)cc1NC(=O)c1ccc(C)c(Oc2ncccc2-c2ccnc(NCCCN3CCOCC3)c2)c1 [Example 641, N-(5-cyclohexyl-2-(methyloxy)phenyl)-4-methyl-3-((2′-((3-(4-morpholinyl)propyl)amino)-3,4′-bipyridin-2-yl)oxy)benzamide] | < 5
14 | CNc1ncnc(-c2cccnc2Oc2cc(C(=O)Nc3cc(C4CCCCC4)ccc3OC)ccc2C)n1 [Example 643, N-(5-cyclohexyl-2-(methyloxy)phenyl)-4-methyl-3-((3-(4-(methylamino)-1,3,5-triazin-2-yl)-2-pyridinyl)oxy)benzamide] | < 5
15 | Cc1ccc(C(=O)Nc2cccc(C(C)C)c2)cc1Oc1ncccc1-c1ncnc(NCCN2CCCC2)n1 [Example 644, 4-methyl-N-(3-(1-methylethyl)phenyl)-3-((3-(4-((2-(1-pyrrolidinyl)ethyl)amino)-1,3,5-triazin-2-yl)-2-pyridinyl)oxy)benzamide] | < 5
16 | CCNc1ncnc(-c2cccnc2Oc2cc(C(=O)Nc3cccc(C(C)C)c3)ccc2C)n1 [Example 645, 3-((3-(4-(ethylamino)-1,3,5-triazin-2-yl)-2-pyridinyl)oxy)-4-methyl-N-(3-(1-methylethyl)phenyl) benzamide] | < 5

Row | SMILES | IC50 [µM]
17 | CCCNc1ncnc(-c2cccnc2Oc2cc(C(=O)Nc3cccc(C(C)C)c3)ccc2C)n1 [Example 646, 4-methyl-N-(3-(1-methylethyl)phenyl)-3-((3-(4-(propylamino)-1,3,5-triazin-2-yl)-2-pyridinyl)oxy)benzamide] | < 5
18 | COc1ccc(C2CCCCC2)cc1NC(=O)c1ccc(C)c(Oc2ncccc2-c2ncnc(NCCN3CCCC3)n2)c1 [Example 647, N-(5-cyclohexyl-2-(methyloxy)phenyl)-4-methyl-3-((3-(4-((2-(1-pyrrolidinyl)ethyl)amino)-1,3,5-triazin-2-yl)-2-pyridinyl)oxy)benzamide] | < 5
19 | CCNc1ncnc(-c2cccnc2Oc2cc(C(=O)Nc3cc(C4CCCCC4)ccc3OC)ccc2C)n1 [Example 648, N-(5-cyclohexyl-2-(methyloxy)phenyl)-3-((3-(4-(ethylamino)-1,3,5-triazin-2-yl)-2-pyridinyl)oxy)-4-methylbenzamide] | < 5
20 | CCCNc1ncnc(-c2cccnc2Oc2cc(C(=O)Nc3cc(C4CCCCC4)ccc3OC)ccc2C)n1 [Example 649, N-(5-cyclohexyl-2-(methyloxy)phenyl)-4-methyl-3-((3-(4 - (propylamino)-1,3,5-triazin-2-yl)-2-pyridinyl)oxy)benzamide] | < 5
21 | Cc1ccc(C(=O)Nc2cccc(C(C)C)c2)cc1Oc1ncccc1-c1nc(NCCN2CCCC2)ncc1F [Example 651, 3-((3-(5-fluoro-2-((2-(1-pyrrolidinyl)ethyl)amino)-4-pyrimidinyl)-2-pyridinyl)oxy)-4-methyl-N-(3-(1-methylethyl)phenyl) benzamide] | < 5
22 | Cc1ccc(C(=O)Nc2cc(C(F)(F)F)ccc2N2CCOCC2)cc1Oc1ncccc1-c1ccnc(NCCCN2CCOCC2)c1 [Example 652, 4-methyl-3-((2′-((3-(4-morpholinyl)propyl)amino)-3,4′-bipyridin-2-yl)oxy)-N-(2-(4-morpholinyl)-5-(trifluoromethyl)phenyl) benzamide] | < 5
23 | COc1ccc(C2CCCCC2)cc1NC(=O)c1ccc(C)c(Oc2ncccc2-c2nc(NCCN3CCCC3)ncc2F)c1 [Example 653, N-(5-cyclohexyl-2-(methyloxy)phenyl)-3-((3-(5-fluoro-2-((2-(1-pyrrolidinyl)ethyl)amino)-4-pyrimidinyl)-2-pyridinyl)oxy)-4-methylbenzamide] | < 5
24 | CCCCNc1ncnc(-c2cccnc2Oc2cc(C(=O)Nc3cc(C4CCCCC4)ccc3OC)ccc2C)n1 [Example 654, 3-((3-(4-(butylamino)-1,3,5-triazin-2-yl)-2-pyridinyl)oxy)-N-(5-cyclohexyl-2-(methyloxy)phenyl)-4-methylbenzamide] | < 5
25 | COc1ccc(C2CCCCC2)cc1NC(=O)c1ccc(C)c(Oc2ncccc2-c2ncnc(NCCO)n2)c1 [Example 655, N-(5-cyclohexyl-2-(methyloxy)phenyl)-3-((3-(4-((2-hydroxyethyl)amino)-1,3,5-triazin-2-yl)-2-pyridinyl)oxy)-4-methylbenzamide] | < 5
26 | CNc1ncc(F)c(-c2cccnc2Oc2cc(C(=O)Nc3cccc(C(C)C)c3)ccc2C)n1 [Example 656, 3-((3-(5-fluoro-2-(methylamino)-4-pyrimidinyl)-2-pyridinyl)oxy)-4-methyl-N-(3-(1-methylethyl)phenyl) benzamide] | < 5
27 | CNc1ncc(F)c(-c2cccnc2Oc2cc(C(=O)Nc3cc(C4CCCCC4)ccc3OC)ccc2C)n1 [Example 657, N-(5-cyclohexyl-2-(methyloxy)phenyl)-3-((3-(5-fluoro-2-(methylamino)-4-pyrimidinyl)-2-pyridinyl)oxy)-4-methylbenzamide] | < 5
28 | CNc1cc(-c2cccnc2Oc2ccc(F)c(C(=O)Nc3cc(C(F)(F)F)ccc3N3CCCCC3)c2)ccn1 [Example 660, 2-fluoro-5-((2′-(methylamino)-3,4′-bipyridin-2-yl)oxy)-N-(2-(1-piperidinyl)-5-(trifluoromethyl)phenyl) benzamide] | < 5
29 | COc1cc(-c2cccnc2Oc2cc(C(=O)Nc3cccc(C(F)(F)F)c3)ccc2C)ccn1 [Example 661, 4-methyl-3-((2′-(methyloxy)-3,4′-bipyridin-2-yl)oxy)-N-(3-(trifluoromethyl)phenyl) benzamide] | < 5
30 | O=C(Nc1cccc(C(F)(F)F)c1)Nc1ccc(Oc2ncccc2-c2ccncn2)cc1F [Example 680, N-(2-fluoro-4-((3-(4-pyrimidinyl)-2-pyridinyl)oxy)phenyl)-N′-(3-(trifluoromethyl)phenyl)urea] | < 5
31 | O=C(Nc1cc(C(F)(F)F)ccc1Cl)Nc1ccc(Oc2ncccc2-c2ccncn2)c2ccccc12 [Example 687, N-(2-chloro-5-(trifluoromethyl)phenyl)-N′-(4-((3-(4-pyrimidinyl)-2-pyridinyl)oxy)-1-naphthalenyl)urea] | < 5
32 | Cc1ccc(NC(=O)c2cc(Cl)cc(Cl)c2)cc1Oc1ncccc1-c1ccncn1 [Example 690, 3,5-dichloro-N-(4-methyl-3-((3-(4-pyrimidinyl)-2-pyridinyl)oxy)phenyl) benzamide] | < 5
